Assay results: PMC8373943

By UniProt entry, the sequences of proteins in these tests, tags left out.
UniProt Q9H9B1: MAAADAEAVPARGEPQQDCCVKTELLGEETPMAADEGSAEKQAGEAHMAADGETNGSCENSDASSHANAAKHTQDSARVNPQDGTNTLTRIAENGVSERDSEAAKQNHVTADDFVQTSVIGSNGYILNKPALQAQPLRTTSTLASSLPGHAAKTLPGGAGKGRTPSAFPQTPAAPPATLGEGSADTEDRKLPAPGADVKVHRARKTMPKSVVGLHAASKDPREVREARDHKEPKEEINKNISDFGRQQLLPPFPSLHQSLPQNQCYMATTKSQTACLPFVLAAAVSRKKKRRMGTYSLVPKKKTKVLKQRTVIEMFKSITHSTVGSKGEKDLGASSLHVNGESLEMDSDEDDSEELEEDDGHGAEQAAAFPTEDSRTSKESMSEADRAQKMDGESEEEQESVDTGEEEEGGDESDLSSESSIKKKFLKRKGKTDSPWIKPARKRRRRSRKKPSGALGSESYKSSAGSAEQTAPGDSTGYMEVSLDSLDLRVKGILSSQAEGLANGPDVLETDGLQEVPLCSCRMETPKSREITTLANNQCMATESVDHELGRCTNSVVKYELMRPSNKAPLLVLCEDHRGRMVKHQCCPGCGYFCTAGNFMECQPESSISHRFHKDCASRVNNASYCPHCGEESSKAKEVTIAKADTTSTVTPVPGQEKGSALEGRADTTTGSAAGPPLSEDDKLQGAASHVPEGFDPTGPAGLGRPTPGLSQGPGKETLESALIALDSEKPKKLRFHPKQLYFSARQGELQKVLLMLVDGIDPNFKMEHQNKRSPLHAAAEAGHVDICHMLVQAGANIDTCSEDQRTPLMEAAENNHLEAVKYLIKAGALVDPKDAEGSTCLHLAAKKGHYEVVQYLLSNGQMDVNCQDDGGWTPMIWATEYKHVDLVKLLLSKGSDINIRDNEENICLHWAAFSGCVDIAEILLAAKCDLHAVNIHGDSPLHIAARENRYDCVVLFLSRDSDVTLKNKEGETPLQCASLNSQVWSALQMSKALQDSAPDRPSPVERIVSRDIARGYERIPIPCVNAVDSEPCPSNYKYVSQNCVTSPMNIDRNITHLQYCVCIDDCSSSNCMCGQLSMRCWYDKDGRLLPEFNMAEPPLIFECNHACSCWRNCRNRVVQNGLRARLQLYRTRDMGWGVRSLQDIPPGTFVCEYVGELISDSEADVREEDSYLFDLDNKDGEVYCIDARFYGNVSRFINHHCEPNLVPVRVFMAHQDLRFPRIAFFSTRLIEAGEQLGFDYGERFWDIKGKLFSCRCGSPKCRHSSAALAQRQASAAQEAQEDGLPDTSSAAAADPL
UniProt Q9NQS7: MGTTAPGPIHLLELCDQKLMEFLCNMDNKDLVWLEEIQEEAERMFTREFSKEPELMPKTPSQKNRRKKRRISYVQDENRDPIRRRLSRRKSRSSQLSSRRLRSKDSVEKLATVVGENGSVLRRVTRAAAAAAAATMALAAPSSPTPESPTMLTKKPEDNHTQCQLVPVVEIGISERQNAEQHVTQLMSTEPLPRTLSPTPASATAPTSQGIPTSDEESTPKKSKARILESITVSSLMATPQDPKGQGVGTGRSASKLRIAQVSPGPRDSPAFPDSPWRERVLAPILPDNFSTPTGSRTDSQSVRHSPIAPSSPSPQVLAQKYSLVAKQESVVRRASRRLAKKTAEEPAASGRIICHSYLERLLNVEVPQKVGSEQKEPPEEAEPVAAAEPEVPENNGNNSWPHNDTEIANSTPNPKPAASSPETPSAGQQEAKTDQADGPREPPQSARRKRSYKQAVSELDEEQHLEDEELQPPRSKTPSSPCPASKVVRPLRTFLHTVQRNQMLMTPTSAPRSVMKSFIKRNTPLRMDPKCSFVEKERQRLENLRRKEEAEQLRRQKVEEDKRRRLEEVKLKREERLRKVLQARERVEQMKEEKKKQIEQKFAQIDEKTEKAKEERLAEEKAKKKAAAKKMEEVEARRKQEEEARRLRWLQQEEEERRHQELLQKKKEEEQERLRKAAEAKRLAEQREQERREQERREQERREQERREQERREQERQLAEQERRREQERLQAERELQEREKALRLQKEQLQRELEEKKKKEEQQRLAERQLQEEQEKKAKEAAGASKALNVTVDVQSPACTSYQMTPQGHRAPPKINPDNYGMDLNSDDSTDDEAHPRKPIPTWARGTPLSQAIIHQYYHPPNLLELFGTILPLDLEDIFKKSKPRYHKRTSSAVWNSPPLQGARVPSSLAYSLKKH
UniProt P20700: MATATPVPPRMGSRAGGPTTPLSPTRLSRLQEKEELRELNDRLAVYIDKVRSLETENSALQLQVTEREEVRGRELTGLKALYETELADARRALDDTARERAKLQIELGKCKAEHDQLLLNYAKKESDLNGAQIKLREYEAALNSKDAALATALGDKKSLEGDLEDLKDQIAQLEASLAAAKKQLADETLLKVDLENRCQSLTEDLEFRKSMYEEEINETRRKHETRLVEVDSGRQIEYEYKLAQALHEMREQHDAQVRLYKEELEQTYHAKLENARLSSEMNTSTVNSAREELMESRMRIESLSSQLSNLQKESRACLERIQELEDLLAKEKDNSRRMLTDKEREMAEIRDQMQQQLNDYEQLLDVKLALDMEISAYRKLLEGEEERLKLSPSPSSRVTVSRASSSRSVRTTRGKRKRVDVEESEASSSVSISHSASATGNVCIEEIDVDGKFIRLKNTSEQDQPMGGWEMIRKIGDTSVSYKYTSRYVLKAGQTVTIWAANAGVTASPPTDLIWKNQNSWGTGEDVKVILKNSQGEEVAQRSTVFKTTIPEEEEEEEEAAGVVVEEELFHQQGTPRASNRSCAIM
UniProt Q8IWI9: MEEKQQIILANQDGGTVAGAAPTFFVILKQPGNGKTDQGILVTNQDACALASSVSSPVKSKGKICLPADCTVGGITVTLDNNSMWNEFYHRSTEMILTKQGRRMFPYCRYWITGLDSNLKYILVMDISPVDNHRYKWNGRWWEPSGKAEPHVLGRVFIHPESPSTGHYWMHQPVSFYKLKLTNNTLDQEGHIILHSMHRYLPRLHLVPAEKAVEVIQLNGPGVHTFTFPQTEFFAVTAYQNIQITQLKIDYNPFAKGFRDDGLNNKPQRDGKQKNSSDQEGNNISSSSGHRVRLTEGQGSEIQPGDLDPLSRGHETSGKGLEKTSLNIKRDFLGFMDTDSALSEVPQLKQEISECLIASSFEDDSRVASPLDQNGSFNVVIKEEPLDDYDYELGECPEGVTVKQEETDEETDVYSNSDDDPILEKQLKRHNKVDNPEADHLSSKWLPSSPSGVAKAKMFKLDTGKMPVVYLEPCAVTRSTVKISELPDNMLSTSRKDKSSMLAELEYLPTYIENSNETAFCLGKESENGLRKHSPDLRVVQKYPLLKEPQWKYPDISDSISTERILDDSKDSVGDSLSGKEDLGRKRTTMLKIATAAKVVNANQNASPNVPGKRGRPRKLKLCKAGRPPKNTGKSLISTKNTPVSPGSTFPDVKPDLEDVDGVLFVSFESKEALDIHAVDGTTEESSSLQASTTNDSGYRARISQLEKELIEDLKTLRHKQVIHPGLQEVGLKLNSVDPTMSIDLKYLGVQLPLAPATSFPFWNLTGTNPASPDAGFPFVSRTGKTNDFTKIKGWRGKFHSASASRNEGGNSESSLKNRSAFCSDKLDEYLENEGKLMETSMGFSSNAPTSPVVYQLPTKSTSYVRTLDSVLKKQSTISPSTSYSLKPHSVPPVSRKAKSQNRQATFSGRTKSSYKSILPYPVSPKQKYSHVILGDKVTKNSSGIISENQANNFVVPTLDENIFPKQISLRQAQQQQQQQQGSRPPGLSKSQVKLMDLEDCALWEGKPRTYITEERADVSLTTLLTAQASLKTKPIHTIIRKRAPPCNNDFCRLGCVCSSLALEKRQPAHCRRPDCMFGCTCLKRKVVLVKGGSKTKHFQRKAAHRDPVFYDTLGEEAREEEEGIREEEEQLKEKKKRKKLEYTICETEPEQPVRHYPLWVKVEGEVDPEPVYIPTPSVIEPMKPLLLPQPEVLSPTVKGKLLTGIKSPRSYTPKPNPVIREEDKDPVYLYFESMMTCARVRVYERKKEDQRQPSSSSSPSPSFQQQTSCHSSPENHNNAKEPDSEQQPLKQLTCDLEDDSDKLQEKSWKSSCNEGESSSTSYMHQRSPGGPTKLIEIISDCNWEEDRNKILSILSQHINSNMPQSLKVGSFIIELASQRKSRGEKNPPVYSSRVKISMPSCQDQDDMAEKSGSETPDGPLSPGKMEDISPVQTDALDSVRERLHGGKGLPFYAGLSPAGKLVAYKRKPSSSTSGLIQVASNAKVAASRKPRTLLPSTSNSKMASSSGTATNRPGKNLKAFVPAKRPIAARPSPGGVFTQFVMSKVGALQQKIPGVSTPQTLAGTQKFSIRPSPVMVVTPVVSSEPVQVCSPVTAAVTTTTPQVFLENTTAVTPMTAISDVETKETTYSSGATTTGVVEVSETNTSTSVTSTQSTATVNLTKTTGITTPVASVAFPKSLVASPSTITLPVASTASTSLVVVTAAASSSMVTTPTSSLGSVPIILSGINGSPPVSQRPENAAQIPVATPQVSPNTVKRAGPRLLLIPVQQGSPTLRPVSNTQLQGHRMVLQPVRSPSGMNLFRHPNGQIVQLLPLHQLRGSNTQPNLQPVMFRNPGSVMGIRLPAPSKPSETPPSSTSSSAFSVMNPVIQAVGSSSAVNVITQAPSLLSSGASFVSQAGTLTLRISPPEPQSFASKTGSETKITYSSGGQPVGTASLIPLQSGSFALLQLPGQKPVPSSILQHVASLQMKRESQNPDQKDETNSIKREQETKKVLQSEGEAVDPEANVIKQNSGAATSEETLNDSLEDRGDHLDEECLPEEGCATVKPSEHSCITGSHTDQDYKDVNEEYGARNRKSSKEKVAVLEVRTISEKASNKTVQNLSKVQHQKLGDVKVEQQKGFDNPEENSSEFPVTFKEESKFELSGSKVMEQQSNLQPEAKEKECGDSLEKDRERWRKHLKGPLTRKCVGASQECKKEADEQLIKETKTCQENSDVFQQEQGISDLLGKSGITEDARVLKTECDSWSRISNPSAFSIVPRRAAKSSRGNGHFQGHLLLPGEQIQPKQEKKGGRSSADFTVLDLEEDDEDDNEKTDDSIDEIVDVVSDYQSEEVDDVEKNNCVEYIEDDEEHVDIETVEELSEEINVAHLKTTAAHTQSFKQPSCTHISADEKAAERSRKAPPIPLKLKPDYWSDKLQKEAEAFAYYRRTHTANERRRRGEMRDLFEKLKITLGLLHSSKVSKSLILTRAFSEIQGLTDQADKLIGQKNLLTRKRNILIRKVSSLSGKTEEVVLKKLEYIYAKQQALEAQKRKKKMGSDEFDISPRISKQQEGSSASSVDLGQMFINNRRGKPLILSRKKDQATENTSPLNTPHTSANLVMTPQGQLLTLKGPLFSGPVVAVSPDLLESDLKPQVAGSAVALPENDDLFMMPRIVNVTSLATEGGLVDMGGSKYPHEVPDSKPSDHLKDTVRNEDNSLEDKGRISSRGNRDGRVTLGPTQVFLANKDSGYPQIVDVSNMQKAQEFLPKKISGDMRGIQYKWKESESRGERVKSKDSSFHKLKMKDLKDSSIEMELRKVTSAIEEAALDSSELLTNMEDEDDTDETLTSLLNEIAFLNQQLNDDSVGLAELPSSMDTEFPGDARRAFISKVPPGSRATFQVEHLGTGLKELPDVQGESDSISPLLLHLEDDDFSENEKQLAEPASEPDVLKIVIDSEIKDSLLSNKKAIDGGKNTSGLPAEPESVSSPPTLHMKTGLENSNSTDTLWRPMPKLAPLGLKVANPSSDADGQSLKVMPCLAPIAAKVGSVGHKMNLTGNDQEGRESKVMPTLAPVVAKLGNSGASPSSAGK

Legend:
[1] = target: T1, endogenous FLYWCH1 fused to miniTurboID (knock-in) (human (endogenous in HeLa)) (UniProt Q4VC44); assay: proximity labelling; FLYWCH1-miniTurboID knock-in HeLa cells with biotin compared to wild-type HeLa cells with biotin; nuclei, RIPA, streptavidin beads with ethidium bromide, LC-MS (n = 3)
T1 sequence: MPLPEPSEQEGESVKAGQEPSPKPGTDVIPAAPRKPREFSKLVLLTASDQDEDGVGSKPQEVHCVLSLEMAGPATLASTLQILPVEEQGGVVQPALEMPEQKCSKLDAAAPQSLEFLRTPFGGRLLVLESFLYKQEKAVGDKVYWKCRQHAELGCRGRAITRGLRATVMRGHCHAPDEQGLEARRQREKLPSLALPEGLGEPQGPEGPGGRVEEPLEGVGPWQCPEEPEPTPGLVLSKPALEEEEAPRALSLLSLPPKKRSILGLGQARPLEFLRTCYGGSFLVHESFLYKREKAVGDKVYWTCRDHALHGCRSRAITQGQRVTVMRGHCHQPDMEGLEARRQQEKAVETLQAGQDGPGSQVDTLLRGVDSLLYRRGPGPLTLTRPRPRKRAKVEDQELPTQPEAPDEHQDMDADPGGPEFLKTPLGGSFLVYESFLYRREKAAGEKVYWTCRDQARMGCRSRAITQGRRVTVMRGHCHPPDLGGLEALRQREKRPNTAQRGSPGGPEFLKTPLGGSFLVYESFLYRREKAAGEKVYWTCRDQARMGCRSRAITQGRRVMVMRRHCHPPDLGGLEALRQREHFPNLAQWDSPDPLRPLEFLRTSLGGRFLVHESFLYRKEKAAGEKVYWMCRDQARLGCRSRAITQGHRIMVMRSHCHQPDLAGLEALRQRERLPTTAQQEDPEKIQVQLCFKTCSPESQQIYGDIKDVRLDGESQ

[2] = target: T2, Emerin (human (endogenous in HeLa and primary human fibroblasts)) (UniProt P50402); assay: proximity labelling; ProtA-Turbo in fixed (4% PFA), permeabilized HeLa cells or nuclei; bait reached by a primary antibody, then ProtA-Turbo, 5 uM biotin 10 min 37 °C; RIPA lysis, streptavidin beads, label-free LC-MS in triplicate against IgG control
T2 sequence: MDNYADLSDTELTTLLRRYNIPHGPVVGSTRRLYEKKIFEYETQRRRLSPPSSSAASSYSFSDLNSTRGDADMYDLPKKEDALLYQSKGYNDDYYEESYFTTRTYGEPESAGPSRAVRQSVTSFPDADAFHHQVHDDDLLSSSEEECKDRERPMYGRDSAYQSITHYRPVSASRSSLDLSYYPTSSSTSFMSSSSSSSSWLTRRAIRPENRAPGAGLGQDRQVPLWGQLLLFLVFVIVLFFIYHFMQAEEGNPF

[3] = target: T3, Emerin (human (endogenous in HeLa and primary human fibroblasts)), P50402; assay: as above; details: remark: other sources report otherwise
T3 chain: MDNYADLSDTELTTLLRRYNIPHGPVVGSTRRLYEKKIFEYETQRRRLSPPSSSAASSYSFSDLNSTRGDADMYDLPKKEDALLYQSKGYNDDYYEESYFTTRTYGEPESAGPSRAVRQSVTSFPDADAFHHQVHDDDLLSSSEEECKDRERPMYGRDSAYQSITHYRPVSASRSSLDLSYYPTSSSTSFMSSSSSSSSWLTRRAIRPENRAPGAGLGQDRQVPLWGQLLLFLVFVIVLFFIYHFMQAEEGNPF

## EHMT1 (from UniProt Q9H9B1 1-1298)
[1]
  binding: binds

## INCENP (from UniProt Q9NQS7 1-918)
[1]
  binding: binds

## LMNB1 (from UniProt P20700 1-586)
[2]
  binding: binds

## MGA (from UniProt Q8IWI9 1-3065)
[1]
  binding: binds

B1: TMPO, P42167 1-454 (protein)
chain: MPEFLEDPSVLTKDKLKSELVANNVTLPAGEQRKDVYVQLYLQHLTARNRPPLPAGTNSKGPPDFSSDEEREPTPVLGSGAAAAGRSRAAVGRKATKKTDKPRQEDKDDLDVTELTNEDLLDQLVKYGVNPGPIVGTTRKLYEKKLLKLREQGTESRSSTPLPTISSSAENTRQNGSNDSDRYSDNEEDSKIELKLEKREPLKGRAKTPVTLKQRRVEHNQSYSQAGITETEWTSGSSKGGPLQALTRESTRGSRRTPRKRVETSEHFRIDGPVISESTPIAETIMASSNESLVVNRVTGNFKHASPILPITEFSDIPRRAPKKPLTRAEVGEKTEERRVERDILKEMFPYEASTPTGISASCRRPIKGAAGRPLELSDFRMEESFSSKYVPKYVPLADVKSEKTKKGRSIPVWIKILLFVVVAVFLFLVYQAMETNQVNPFSNFLHVDPRKSN
[3]
  binding: binds

B2: CDCA8 (protein, UniProt Q53HL2 1-280)
chain: MAPRKGSSRVAKTNSLRRRKLASFLKDFDREVEIRIKQIESDRQNLLKEVDNLYNIEILRLPKALREMNWLDYFALGGNKQALEEAATADLDITEINKLTAEAIQTPLKSAKTRKVIQVDEMIVEEEEEEENERKNLQTARVKRCPPSKKRTQSIQGKGKGKRSSRANTVTPAVGRLEVSMVKPTPGLTPRFDSRVFKTPGLRTPAAGERIYNISGNGSPLADSKEIFLTVPVGGGESLRLLASDLQRHSIAQLDPEALGNIKKLSNRLAQICSSIRTHK
[1]
  binding: binds

B3: LMNB2 (protein, UniProt Q03252 1-620)
chain: MSPPSPGRRREQRRPRAAATMATPLPGRAGGPATPLSPTRLSRLQEKEELRELNDRLAHYIDRVRALELENDRLLLKISEKEEVTTREVSGIKALYESELADARRVLDETARERARLQIEIGKLRAELDEVNKSAKKREGELTVAQGRVKDLESLFHRSEVELAAALSDKRGLESDVAELRAQLAKAEDGHAVAKKQLEKETLMRVDLENRCQSLQEELDFRKSVFEEEVRETRRRHERRLVEVDSSRQQEYDFKMAQALEELRSQHDEQVRLYKLELEQTYQAKLDSAKLSSDQNDKAASAAREELKEARMRLESLSYQLSGLQKQASAAEDRIRELEEAMAGERDKFRKMLDAKEQEMTEMRDVMQQQLAEYQELLDVKLALDMEINAYRKLLEGEEERLKLSPSPSSRVTVSRATSSSSGSLSATGRLGRSKRKRLEVEEPLGSGPSVLGTGTGGSGGFHLAQQASASGSVSIEEIDLEGKFVQLKNNSDKDQSLGNWRIKRQVLEGEEIAYKFTPKYILRAGQMVTVWAAGAGVAHSPPSTLVWKGQSSWGTGESFRTVLVNADGEEVAMRTVKKSSVMRENENGEEEEEEAEFGEEDLFHQQGDPRTTSRGCYVM
[2]
  binding: binds

Results are given in words; binding and its absence hold for the method and conditions named. Binding seen in cells or lysates may run through a third protein. Here binding means that the protein was enriched with, or labelled near, the bait; the list need not be complete. For some of these results: Sequences can lack the tags named with a protein.
